# PubChem BioAssay AID330 (DTP/NCI, 2004)
# The list does not hold the whole screen: it is rich in T/C values a quarter to a half above the control, in often repeated tests (any T/C) and in doses without a T/C. Other doses and runs of a compound stand elsewhere. T/C: endpoint of the treated group in % of that of the vehicle group. Some entries give survivors of the animals treated and no T/C: the source files T/C as zero there, which appears to mark a toxic dose or a test without result, not a measured value. Some survivor counts are full or nearly so, which does not show that the dose was tolerated: the source hardly ever lists a survival T/C far under the control, and the zero likely stands for such cases as well. Survivors were counted at the toxicity check, usually on the fifth day, unless a day is given; later deaths do not show. Schedule codes are those of the source, read here as Q, the interval in days (D) or hours (H), X, the number of doses. Some entries were tested several times; the values are given in rising order. For survival time, the PubChem record calls one and a half times the control and up active, and a quarter to a half above the control has no call in these data; cut-offs in other NCI protocols can differ. Some T/C values carry the count of animals alive at the toxicity check (mostly the fifth day); where none is given, no animal had died by that day.
# Test system: P388 leukemia ip, CD2F1 mice, survival T/C
# Assay: NCI In Vivo Anticancer Drug Screen. Data for tumor model P388 Leukemia (intraperitoneal) in CD2F1 (CDF1) mice
# Settings: T/C endpoint: median survival time, higher T/C = longer survival
# [1] = dose: 50.0 mg/kg/injection, schedule: Q01DX009 (ip), vehicle: saline
# [2] = dose: 100.0 mg/kg/injection, schedule: Q01DX009 (ip), vehicle: saline
# [3] = dose: 25.0 mg/kg/injection, schedule: Q01DX009 (ip), vehicle: water
# [4] = dose: 200.0 mg/kg/injection, schedule: Q01DX005 (ip), vehicle: Klucel (hydroxypropylcellulose) (HPC)
# [5] = dose: 100.0 mg/kg/injection, schedule: Q01DX009 (ip), vehicle: saline with Tween-80
# [6] = dose: 200.0 mg/kg/injection, schedule: Q01DX009 (ip), vehicle: saline with Tween-80
# [7] = dose: 100.0 mg/kg/injection, schedule: Q01DX005 (ip), vehicle: Klucel (hydroxypropylcellulose) (HPC)
# [8] = dose: 200.0 mg/kg/injection, schedule: Q01DX009 (ip), vehicle: saline
# [9] = dose: 12.5 mg/kg/injection, schedule: Q01DX009 (ip), vehicle: saline
# [10] = dose: 25.0 mg/kg/injection, schedule: Q01DX009 (ip), vehicle: saline
# [11] = dose: 100.0 mg/kg/injection, schedule: Q04DX003 (ip), vehicle: saline
# [12] = dose: 60.0 mg/kg/injection, schedule: Q01DX005 (ip), vehicle: Klucel (hydroxypropylcellulose) (HPC)
# [13] = dose: 120.0 mg/kg/injection, schedule: Q01DX005 (ip), vehicle: Klucel (hydroxypropylcellulose) (HPC)
# [14] = dose: 240.0 mg/kg/injection, schedule: Q01DX005 (ip), vehicle: Klucel (hydroxypropylcellulose) (HPC)
# [15] = dose: 120.0 mg/kg/injection, schedule: Q01DX005 (ip), vehicle: saline with Tween-80
# [16] = dose: 240.0 mg/kg/injection, schedule: Q01DX005 (ip), vehicle: saline with Tween-80
smiles,measurement,setting,value
CC(=O)Nc1cccc(OCc2cccc(N3C(N)=NC(N)=NC3(C)C)c2)c1,T/C,"dose: 25.0 mg/kg/injection, schedule: Q01DX009 (ip), vehicle: distilled water + Tween-80",127 % of control
same,T/C,"dose: 50.0 mg/kg/injection, schedule: Q01DX009 (ip), vehicle: distilled water + Tween-80",136 % of control
same,survivor count,[1],5 of 5
same,survivor count,"dose: 100.0 mg/kg/injection, schedule: Q01DX009 (ip), vehicle: distilled water + Tween-80",0 of 5
same,survivor count,[2],0 of 5
O=NNc1ccc2cc3ccc(NN=O)cc3nc2c1,T/C,"dose: 3.12 mg/kg/injection, schedule: Q01DX009 (ip), vehicle: water",130 and 133 % of control
same,T/C,"dose: 6.25 mg/kg/injection, schedule: Q01DX009 (ip), vehicle: water",125 and 134 % of control
same,T/C,"dose: 12.5 mg/kg/injection, schedule: Q01DX009 (ip), vehicle: water",125 and 133 % of control
same,T/C,[3],132 % of control
same,survivor count,"dose: 100.0 mg/kg/injection, schedule: Q01DX009 (ip), vehicle: water",6 of 6
O=C(O)CCc1cccnc1,T/C,"dose: 600.0 mg/kg/injection, schedule: Q01DX009 (ip), vehicle: saline with Tween-80",127 % of control
Cc1nn(C)cc1P(=O)(c1ccccc1)c1ccccc1,survivor count,[4],1 of 6
C/C=C/c1ccccc1N/N=C(\Cl)C(=O)OCC,T/C,"dose: 30.0 mg/kg/injection, schedule: Q01DX005 (ip), vehicle: saline with Tween-80",125 % of control
same,survivor count,[5],3 of 6
same,survivor count,[6],0 of 6
same,survivor count,"dose: 400.0 mg/kg/injection, schedule: Q01DX009 (ip), vehicle: saline with Tween-80",0 of 6
CCc1c2c(cc3c1[nH]c1ccccc13)C(=O)NC2=O,survivor count,[7],5 of 5
CC(C)Cn1c(C(C)C)nc([N+](=O)[O-])c1Sc1ncn[nH]1,T/C,[7],131 % of control
same,T/C,[4],131 and 137 % of control
CCCCCCCCCCCC[N+]1([O-])CCCCC1,survivor count,[1],6 of 6
same,survivor count,[2],4 of 6
same,survivor count,[8],0 of 6
Cc1coc2c1CCC(C)C2 (centres undefined),survivor count,[5],3 of 6
same,survivor count,[6],0 of 6
CCOC(=O)[C]1([Pb]([CH3])([CH3])[CH3])N=NC(C(=O)OC)=C1C(=O)OC (centres undefined),survivor count,"dose: 6.25 mg/kg/injection, schedule: Q01DX009 (ip), vehicle: saline",5 of 6
same,survivor count,[9],0 of 6
same,survivor count,[10],0 of 6
same,survivor count,[1],0 of 6
same,survivor count,[2],0 of 6
same,survivor count,[8],0 of 6
Cc1nc(Cl)c2cnccn12,survivor count,[11],0 of 6
CC1=C(C#N)C(C)(CCl)C(C#N)=C(C)N1C,survivor count,"dose: 200.0 mg/kg/injection, schedule: Q01DX009 (ip), vehicle: other",0 of 6
same,survivor count,"dose: 400.0 mg/kg/injection, schedule: Q01DX009 (ip), vehicle: other",0 of 6
COc1cc(Br)cc(/C=C(\C)[N+](=O)[O-])c1O,T/C,[11],126 % of control [5 of 6 alive]
same,survivor count,[11],5 of 6
same,survivor count,"dose: 200.0 mg/kg/injection, schedule: Q04DX003 (ip), vehicle: saline",5 of 6
same,survivor count,"dose: 400.0 mg/kg/injection, schedule: Q04DX003 (ip), vehicle: saline",0 of 6
CC(=O)/C(=C\c1ccc([N+](=O)[O-])o1)C(=O)CCN(C)C,T/C,"dose: 30.0 mg/kg/injection, schedule: Q01DX005 (ip), vehicle: Klucel (hydroxypropylcellulose) (HPC), evaluated on day 20",125 % of control
same,T/C,"dose: 30.0 mg/kg/injection, schedule: Q01DX005 (ip), vehicle: Klucel (hydroxypropylcellulose) (HPC), evaluated on day 21",125 % of control
same,survivor count,[12],0 of 6 and 3 of 6
same,survivor count,[13],0 of 6
same,survivor count,[14],0 of 6
CCCCCCCCCCCCCCCCON,survivor count,"dose: 200.0 mg/kg/injection, schedule: Q01DX009 (ip), vehicle: Klucel (hydroxypropylcellulose) (HPC)",1 of 6
COC1(OC)OC2=C(OC1(OC)OC)c1ccccc1C2=O,T/C,[13],126 % of control
same,survivor count,[13],5 of 6
same,survivor count,[14],3 of 6
O=C1C2=C(OCO2)C(=O)C2=C1OCO2,survivor count,"dose: 60.0 mg/kg/injection, schedule: Q01DX005 (ip), vehicle: saline with Tween-80",5 of 6
same,survivor count,[15],0 of 6
same,survivor count,[16],0 of 6
COc1ccc(Oc2c(OC)cc(NCc3ccc(CN)cc3)c3ncccc23)cc1,survivor count,"dose: 50.0 mg/kg/injection, schedule: Q01DX009 (ip), vehicle: saline with Tween-80",0 of 6
same,survivor count,[5],0 of 6
same,survivor count,[6],0 of 6
CC1(C)OCC(C2OC3OC(C)(C)OC3/C2=N/NC(=O)c2cc3cc(OCc4ccccc4)ccc3[nH]2)O1 (centres undefined),survivor count,"dose: 50.0 mg/kg/injection, schedule: Q01DX005 (ip), vehicle: saline",6 of 6
same,survivor count,"dose: 100.0 mg/kg/injection, schedule: Q01DX005 (ip), vehicle: saline",6 of 6
CCOC(=O)/C(C#N)=C/c1ccc(C)o1,survivor count,[15],3 of 6
same,survivor count,[16],0 of 6
OC1CCN(c2c3ccccc3nc3ccccc23)CC1,survivor count,"dose: 50.0 mg/kg/injection, schedule: Q04DX002 (ip), vehicle: saline",3 of 6
NC1=C(O)C(=O)C(c2c[nH]c3ccc(OCc4ccccc4)cc23)O1 (centres undefined),survivor count,"dose: 7.5 mg/kg/injection, schedule: Q01DX005 (ip), vehicle: Klucel (hydroxypropylcellulose) (HPC)",6 of 6
same,survivor count,[12],6 of 6
same,survivor count,[13],6 of 6
same,survivor count,[14],6 of 6
CCOP(=O)(O)SP(=O)(O)OCC.CCOP(=O)(O)SP(=O)(O)OCC.[Mn],survivor count,"dose: 200.0 mg/kg/injection, schedule: Q04DX002 (ip), vehicle: saline",0 of 6
same,survivor count,"dose: 400.0 mg/kg/injection, schedule: Q04DX002 (ip), vehicle: saline",0 of 6
CC1CCC2(CC1)CCN(CCCN(C)C)CC2,survivor count,[8],3 of 6
Fc1ccnc(F)n1,survivor count,"dose: 100.0 mg/kg/injection, schedule: Q04DX003 (ip), vehicle: water",1 of 6
same,survivor count,"dose: 200.0 mg/kg/injection, schedule: Q04DX003 (ip), vehicle: water",0 of 6
same,survivor count,"dose: 400.0 mg/kg/injection, schedule: Q04DX003 (ip), vehicle: water",0 of 6
CCN(CC)C1CC(C)(O)Cc2cc3c(c(O)c21)C(=O)c1c(O)cc2c(c1C3=O)OC1OC2(C)C(O)C(N(C)C)C1O (centres undefined),T/C,"dose: 6.25 mg/kg/injection, schedule: Q01DX009 (ip), vehicle: other",134 % of control
same,T/C,"dose: 12.5 mg/kg/injection, schedule: Q01DX009 (ip), vehicle: other",133 % of control
same,T/C,"dose: 25.0 mg/kg/injection, schedule: Q01DX009 (ip), vehicle: other",139 % of control
same,survivor count,"dose: 100.0 mg/kg/injection, schedule: Q01DX009 (ip), vehicle: other",3 of 6
COC(=O)c1cc([N+](=O)[O-])ccc1N=NNc1ccccc1,survivor count,[9],3 of 6
same,survivor count,[2],5 of 6
CCC1CN1P(=O)(OCCC#N)N1CC1CC (centres undefined),survivor count,[9],6 of 6
same,survivor count,[10],6 of 6
same,survivor count,[1],6 of 6
COc1cccc2c1C(=O)c1c(O)c3c(c(O)c1C2=O)CC(O)(/C(C)=N/NC(=O)CCCCC(=O)N/N=C(\C)C1(O)Cc2c(O)c4c(c(O)c2C(OC2CC(N)C(O)C(C)O2)C1)C(=O)c1c(OC)cccc1C4=O)CC3OC1CC(N)C(O)C(C)O1 (centres undefined),T/C,"dose: 0.39 mg/kg/injection, schedule: Q01DX009 (ip), vehicle: water",130 and 145 % of control
same,T/C,"dose: 0.78 mg/kg/injection, schedule: Q01DX009 (ip), vehicle: water",142 % of control
same,survivor count,[3],6 of 6
